The experiment addresses Flag-YAP (Yes-associated protein) (UniProt P46937). The experiment can be described thus: co-IP; 293T cells co-transfected with Flag-YAP and HA-USP7; lysed in IP lysis buffer; immunoprecipitated with magnetic beads and FLAG antibody (Pierce Direct Magnetic IP/Co-IP kit); immunoblotting; in some panels cells were cultured with different serine concentrations and treated with MG132 (10 uM, 6 h). Background: In western blotting, separated proteins are transferred to a membrane and probed.

Amino acid sequences for entries named in this document (tags omitted).
UniProt P46937: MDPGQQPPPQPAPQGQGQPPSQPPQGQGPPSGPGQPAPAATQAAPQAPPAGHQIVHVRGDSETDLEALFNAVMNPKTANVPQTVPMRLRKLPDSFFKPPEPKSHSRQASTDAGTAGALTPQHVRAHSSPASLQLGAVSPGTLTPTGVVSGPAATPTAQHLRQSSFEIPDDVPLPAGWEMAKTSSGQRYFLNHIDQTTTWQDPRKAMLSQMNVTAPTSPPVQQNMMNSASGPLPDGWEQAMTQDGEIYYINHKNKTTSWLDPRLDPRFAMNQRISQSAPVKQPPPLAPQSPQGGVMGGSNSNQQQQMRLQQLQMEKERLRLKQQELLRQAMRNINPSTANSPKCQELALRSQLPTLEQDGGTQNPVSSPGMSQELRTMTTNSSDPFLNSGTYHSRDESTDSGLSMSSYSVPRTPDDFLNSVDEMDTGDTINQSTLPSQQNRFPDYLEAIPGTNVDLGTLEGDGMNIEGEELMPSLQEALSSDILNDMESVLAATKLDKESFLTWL
UniProt Q93009: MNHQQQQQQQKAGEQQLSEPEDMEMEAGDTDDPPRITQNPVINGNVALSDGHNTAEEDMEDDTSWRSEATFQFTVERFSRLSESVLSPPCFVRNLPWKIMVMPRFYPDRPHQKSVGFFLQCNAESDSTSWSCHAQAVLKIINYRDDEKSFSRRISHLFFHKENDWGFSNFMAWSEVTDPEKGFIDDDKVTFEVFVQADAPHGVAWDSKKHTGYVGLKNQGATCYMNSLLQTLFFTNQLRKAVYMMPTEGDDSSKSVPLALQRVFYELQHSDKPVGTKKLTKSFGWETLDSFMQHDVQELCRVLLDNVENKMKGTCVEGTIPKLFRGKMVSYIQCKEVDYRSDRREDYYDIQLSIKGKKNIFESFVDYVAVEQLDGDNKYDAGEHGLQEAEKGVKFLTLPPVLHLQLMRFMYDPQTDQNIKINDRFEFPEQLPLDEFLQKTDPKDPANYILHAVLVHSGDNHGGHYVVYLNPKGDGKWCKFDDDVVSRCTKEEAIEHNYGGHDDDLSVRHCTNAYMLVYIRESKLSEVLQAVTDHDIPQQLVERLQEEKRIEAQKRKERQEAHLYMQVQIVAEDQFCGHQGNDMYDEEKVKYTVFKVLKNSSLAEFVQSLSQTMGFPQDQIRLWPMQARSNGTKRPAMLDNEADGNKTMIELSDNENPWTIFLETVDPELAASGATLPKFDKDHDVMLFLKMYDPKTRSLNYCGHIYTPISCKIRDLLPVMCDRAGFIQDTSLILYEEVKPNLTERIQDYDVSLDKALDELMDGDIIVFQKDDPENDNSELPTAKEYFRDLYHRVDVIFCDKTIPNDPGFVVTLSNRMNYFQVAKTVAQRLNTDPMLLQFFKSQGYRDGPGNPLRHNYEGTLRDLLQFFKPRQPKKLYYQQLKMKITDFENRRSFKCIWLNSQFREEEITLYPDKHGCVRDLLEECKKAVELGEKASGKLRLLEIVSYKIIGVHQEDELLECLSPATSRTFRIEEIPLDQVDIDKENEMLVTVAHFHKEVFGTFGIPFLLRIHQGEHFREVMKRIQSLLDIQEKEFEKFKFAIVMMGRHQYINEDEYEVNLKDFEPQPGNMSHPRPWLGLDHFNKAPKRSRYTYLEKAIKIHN

These are yes or no findings as the source states them, for the method shown. Binding seen in cells or lysates may run through a third protein. Some results given as binding are weak or reduced against the parent protein; the word gives no strength.

As to “HA-USP7 (from UniProt Q93009 1-1102) (enzyme)”, the binding result is given as “binds”.

For the origin of these results see publication PMC8152669.
